# In US10059975B2, “Methods for the isolation and identification of microorganisms” (bioMerieux, Inc., priority 2008, dated 2018):
# Tested on: positive blood culture broths containing S. pneumoniae, E. coli and S. aureus
# Assay: Screening of density cushion compounds: separation of microorganisms from lysed positive blood culture broth
# Conditions: 0.7 mL lysate over 0.5 mL cushion, 2 minutes at approximately 10,000 g
smiles,measurement,value
[Cl-].[Cs+] [cesium chloride],separation results as density cushion (in words),Excellent separation
